Experimental data from article PMC5679597.
These are yes or no findings as the source states them, for the method shown. In cells and extracts the contact can be indirect. A yes stands for co-enrichment or nearness to the bait. Other partners may have been found. Sequences can lack the tags named with a protein.

B1: TMED4, endogenous (protein, UniProt Q7Z7H5 30-227)
chain: LYFHIGETEKRCFIEEIPDETMVIGNYRTQMWDKQKEVFLPSTPGLGMHVEVKDPDGKVVLSRQYGSEGRFTFTSHTPGDHQICLHSNSTRMALFAGGKLRVHLDIQVGEHANNYPEIAAKDKLTELQLRARQLLDQVEQIQKEQDYQRYREERFRLTSESTNQRVLWWSIAQTVILILTGIWQMRHLKSFFEAKKLV
B2: TMED5, endogenous (protein, UniProt Q9Y3A6 28-229)
chain: FTPSLDSDFTFTLPAGQKECFYQPMPLKASLEIEYQVLDGAGLDIDFHLASPEGKTLVFEQRKSDGVHTVETEVGDYMFCFDNTFSTISEKVIFFELILDNMGEQAQEQEDWKKYITGTDILDMKLEDILESINSIKSRLSKSGHIQTLLRAFEARDRNIQESNFDRVNFWSMVNLVVMVVVSAIQVYMLKSLFEDKRKSRT
B3: TMED9, endogenous (protein, UniProt Q9BVK6 38-235)
chain: LYFHIGETEKKCFIEEIPDETMVIGNYRTQLYDKQREEYQPATPGLGMFVEVKDPEDKVILARQYGSEGRFTFTSHTPGEHQICLHSNSTKFSLFAGGMLRVHLDIQVGEHANDYAEIAAKDKLSELQLRVRQLVEQVEQIQKEQNYQRWREERFRQTSESTNQRVLWWSILQTLILVAIGVWQMRHLKSFFEAKKLV
B4: Kinesin-like protein KIF7, endogenous (protein, UniProt Q2M1P5 1-1343)
chain: MGLEAQRLPGAEEAPVRVALRVRPLLPKELLHGHQSCLQVEPGLGRVTLGRDRHFGFHVVLAEDAGQEAVYQACVQPLLEAFFEGFNATVFAYGQTGSGKTYTMGEASVASLLEDEQGIVPRAMAEAFKLIDENDLLDCLVHVSYLEVYKEEFRDLLEVGTASRDIQLREDERGNVVLCGVKEVDVEGLDEVLSLLEMGNAARHTGATHLNHLSSRSHTVFTVTLEQRGRAPSRLPRPAPGQLLVSKFHFVDLAGSERVLKTGSTGERLKESIQINSSLLALGNVISALGDPQRRGSHIPYRDSKITRILKDSLGGNAKTVMIACVSPSSSDFDETLNTLNYASRAQNIRNRATVNWRPEAERPPEETASGARGPPRHRSETRIIHRGRRAPGPATASAAAAMRLGAECARYRACTDAAYSLLRELQAEPGLPGAAARKVRDWLCAVEGERSALSSASGPDSGIESASVEDQAAQGAGGRKEDEGAQQLLTLQNQVARLEEENRDFLAALEDAMEQYKLQSDRLREQQEEMVELRLRLELVRPGWGGPRLLNGLPPGSFVPRPHTAPLGGAHAHVLGMVPPACLPGDEVGSEQRGEQVTNGREAGAELLTEVNRLGSGSSAASEEEEEEEEPPRRTLHLRRNRISNCSQRAGARPGSLPERKGPELCLEELDAAIPGSRAVGGSKARVQARQVPPATASEWRLAQAQQKIRELAINIRMKEELIGELVRTGKAAQALNRQHSQRIRELEQEAEQVRAELSEGQRQLRELEGKELQDAGERSRLQEFRRRVAAAQSQVQVLKEKKQATERLVSLSAQSEKRLQELERNVQLMRQQQGQLQRRLREETEQKRRLEAEMSKRQHRVKELELKHEQQQKILKIKTEEIAAFQRKRRSGSNGSVVSLEQQQKIEEQKKWLDQEMEKVLQQRRALEELGEELHKREAILAKKEALMQEKTGLESKRLRSSQALNEDIVRVSSRLEHLEKELSEKSGQLRQGSAQSQQQIRGEIDSLRQEKDSLLKQRLEIDGKLRQGSLLSPEEERTLFQLDEAIEALDAAIEYKNEAITCRQRVLRASASLLSQCEMNLMAKLSYLSSSETRALLCKYFDKVVTLREEQHQQQIAFSELEMQLEEQQRLVYWLEVALERQRLEMDRQLTLQQKEHEQNMQLLLQQSRDHLGEGLADSRRQYEARIQALEKELGRYMWINQELKQKLGGVNAVGHSRGGEKRSLCSEGRQAPGNEDELHLAPELLWLSPLTEGAPRTREETRDLVHAPLPLTWKRSSLCGEEQGSPEELRQREAAEPLVGRVLPVGEAGLPWNFGPLSKPRRELRRASPGMIDVRKNPL
B5: Kelch-like protein 11, endogenous (protein, UniProt Q9NVR0 16-708)
chain: ASLQVLEMESMETAAAGSAGLAAEVRGSGTVDFGPGPGISAMEASGGDPGPEAEDFECSSHCSELSWRQNEQRRQGLFCDITLCFGGAGGREFRAHRSVLAAATEYFTPLLSGQFSESRSGRVEMRKWSSEPGPEPDTVEAVIEYMYTGRIRVSTGSVHEVLELADRFLLIRLKEFCGEFLKKKLHLSNCVAIHSLAHMYTLSQLALKAADMIRRNFHKVIQDEEFYTLPFHLIRDWLSDLEITVDSEEVLFETVLKWVQRNAEERERYFEELFKLLRLSQMKPTYLTRHVKPERLVANNEVCVKLVADAVERHALRAENIQSGTCQHPTSHVSLLPRYGQNMDVIMVIGGVSEGGDYLSECVGYFVDEDRWVNLPHIHNHLDGHAVAVTESYVYVAGSMEPGFAKTVERYNPNLNTWEHVCSLMTRKHSFGLTEVKGKLYSIGGHGNFSPGFKDVTVYNPELDKWHNLESAPKILRDVKALAIEDRFVYIAARTPVDRDTEDGLKAVITCYDTETRQWQDVESLPLIDNYCFFQMSVVNSNFYQTASCCPKSYCLENEEAVRKIASQVSDEILESLPPEVLSIEGAAICYYKDDVFIIGGWKNSDDIDKQYRKEAYRYCAERKRWMLLPPMPQPRCRATACHVRIPYRYLHGTQRYPMPQNLMWQKDRIRQMQEIHRHALNMRRVPSSQIEC
B6: Isoleucyl-tRNA synthetase, cytoplasmic, endogenous (protein, UniProt P41252 1-1262)
chain: MLQQVPENINFPAEEEKILEFWTEFNCFQECLKQSKHKPKFTFYDGPPFATGLPHYGHILAGTIKDIVTRYAHQSGFHVDRRFGWDCHGLPVEYEIDKTLGIRGPEDVAKMGITEYNNQCRAIVMRYSAEWKSTVSRLGRWIDFDNDYKTLYPQFMESVWWVFKQLYDKGLVYRGVKVMPFSTACNTPLSNFESHQNYKDVQDPSVFVTFPLEEDETVSLVAWTTTPWTLPSNLAVCVNPEMQYVKIKDVARGRLLILMEARLSALYKLESDYEILERFPGAYLKGKKYRPLFDYFLKCKENGAFTVLVDNYVKEEEGTGVVHQAPYFGAEDYRVCMDFNIIRKDSLPVCPVDASGCFTTEVTDFAGQYVKDADKSIIRTLKEQGRLLVATTFTHSYPFCWRSDTPLIYKAVPSWFVRVENMVDQLLRNNDLCYWVPELVREKRFGNWLKDARDWTISRNRYWGTPIPLWVSDDFEEVVCIGSVAELEELSGAKISDLHRESVDHLTIPSRCGKGSLHRISEVFDCWFESGSMPYAQVHYPFENKREFEDAFPADFIAEGIDQTRGWFYTLLVLATALFGQPPFKNVIVNGLVLASDGQKMSKRKKNYPDPVSIIQKYGADALRLYLINSPVVRAENLRFKEEGVRDVLKDVLLPWYNAYRFLIQNVLRLQKEEEIEFLYNENTVRESPNITDRWILSFMQSLIGFFETEMAAYRLYTVVPRLVKFVDILTNWYVRMNRRRLKGENGMEDCVMALETLFSVLLSLCRLMAPYTPFLTELMYQNLKVLIDPVSVQDKDTLSIHYLMLPRVREELIDKKTESAVSQMQSVIELGRVIRDRKTIPIKYPLKEIVVIHQDPEALKDIKSLEKYIIEELNVRKVTLSTDKNKYGIRLRAEPDHMVLGKRLKGAFKAVMTSIKQLSSEELEQFQKTGTIVVEGHELHDEDIRLMYTFDQATGGTAQFEAHSDAQALVLLDVTPDQSMVDEGMAREVINRIQKLRKKCNLVPTDEITVYYKAKSEGTYLNSVIESHTEFIFTTIKAPLKPYPVSPSDKVLIQEKTQLKGSELEITLTRGSSLPGPACAYVNLNICANGSEQGGVLLLENPKGDNRLDLLKLKSVVTSIFGVKNTELAVFHDETEIQNQTDLLSLSGKTLCVTAGSAPSLINSSSTLLCQYINLQLLNAKPQECLMGTVGTLLLENPLGQNGLTHQGLLYEAAKVFGLRSRKLKLFLNETQTQEITEDIPVKTLNMKTVYVSVLPTTADF

Molecular target: T1, GFP-tagged LNX1p80 (Ligand of Numb protein X1, p80 isoform) (mouse) (UniProt O70263)
T1 sequence: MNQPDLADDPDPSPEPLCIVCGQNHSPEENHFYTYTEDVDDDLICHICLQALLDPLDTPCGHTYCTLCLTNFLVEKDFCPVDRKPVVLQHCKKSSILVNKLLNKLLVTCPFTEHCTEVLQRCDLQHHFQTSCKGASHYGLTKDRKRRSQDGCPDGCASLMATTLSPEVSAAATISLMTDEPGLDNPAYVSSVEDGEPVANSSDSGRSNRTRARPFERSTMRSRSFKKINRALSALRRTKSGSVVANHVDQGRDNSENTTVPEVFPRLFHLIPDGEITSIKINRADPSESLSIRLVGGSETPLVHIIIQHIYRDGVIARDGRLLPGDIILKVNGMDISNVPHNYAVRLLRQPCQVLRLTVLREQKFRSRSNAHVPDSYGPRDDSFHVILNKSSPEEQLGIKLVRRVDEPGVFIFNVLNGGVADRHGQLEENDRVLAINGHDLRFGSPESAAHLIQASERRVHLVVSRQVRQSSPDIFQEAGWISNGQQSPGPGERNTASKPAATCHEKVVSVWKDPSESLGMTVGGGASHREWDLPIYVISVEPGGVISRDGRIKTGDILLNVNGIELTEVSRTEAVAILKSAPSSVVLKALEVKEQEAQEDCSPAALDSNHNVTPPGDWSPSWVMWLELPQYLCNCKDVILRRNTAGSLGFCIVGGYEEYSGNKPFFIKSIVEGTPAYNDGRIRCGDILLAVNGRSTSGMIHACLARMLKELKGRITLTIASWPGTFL
Assay: affinity purification with mass spectrometry; GFP-LNX1p80 complexes purified on magnetic GFP-Trap beads from stably transfected HEK 293 cells; gel slices, nano-LC MS/MS; proteins also found with GFP alone removed; Mascot protein score cut-off 70

| Binder | binding |
| --- | --- |
| B1 | binds |
| B2 | binds |
| B3 | binds |
| B4 | binds |
| B5 | binds |
| B6 | binds |
